Test results taken from publication PMC9636801.
Results are given in words; binding and its absence hold for the method and conditions named. In cells and extracts the contact can be indirect. Some entries that bind do so weakly or less than the wild type. One block for each binder: values may come before it.

Legend:
[1] = molecular target: receptor-interacting protein 3 (mouse (endogenous in primary microglia)), Q9QZL0; assay: co-IP; endogenous proteins in lysates of primary microglial cells (weak RIPA lysis buffer); IP with anti-RIPK1 or anti-RIPK3 antibody overnight at 4 °C, protein A/G agarose, immunoblot; cells untreated, treated with 100 μm glutamate for 24 h, or glutamate plus Fetuin-A; details: remark: other sources report otherwise
[2] = molecular target: T1, receptor-interacting protein 1 (mouse (endogenous in primary microglia)), Q60855; assay: as above; details: remark: other sources report otherwise
T1 chain: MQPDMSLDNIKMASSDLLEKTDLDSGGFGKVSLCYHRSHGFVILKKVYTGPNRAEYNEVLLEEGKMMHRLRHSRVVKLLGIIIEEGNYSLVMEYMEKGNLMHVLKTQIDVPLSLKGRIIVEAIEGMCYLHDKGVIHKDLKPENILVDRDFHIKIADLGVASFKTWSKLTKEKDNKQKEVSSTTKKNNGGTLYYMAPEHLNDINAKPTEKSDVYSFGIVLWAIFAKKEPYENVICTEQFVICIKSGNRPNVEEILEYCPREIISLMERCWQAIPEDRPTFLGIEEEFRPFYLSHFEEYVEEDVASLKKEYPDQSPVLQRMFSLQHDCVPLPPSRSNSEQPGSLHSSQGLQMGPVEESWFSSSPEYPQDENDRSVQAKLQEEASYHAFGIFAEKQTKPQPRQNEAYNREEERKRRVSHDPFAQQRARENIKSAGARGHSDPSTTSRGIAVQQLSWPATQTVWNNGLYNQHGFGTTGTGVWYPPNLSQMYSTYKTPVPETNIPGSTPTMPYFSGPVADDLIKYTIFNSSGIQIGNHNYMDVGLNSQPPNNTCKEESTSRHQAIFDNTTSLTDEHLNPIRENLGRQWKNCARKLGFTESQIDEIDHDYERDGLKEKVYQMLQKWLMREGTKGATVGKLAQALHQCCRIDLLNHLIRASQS

binding [1]: binds
B1: receptor-interacting protein 1, Q60855 1-656 (protein)
chain: T1 chain

binding [2]: binds
B2: receptor-interacting protein 3, Q9QZL0 1-486 (protein)
chain: MSSVKLWPTGASAVPLVSREELKKLEFVGKGGFGVVFRAHHRTWNHDVAVKIVNSKKISWEVKAMVNLRNENVLLLLGVTEDLQWDFVSGQALVTRFMENGSLAGLLQPECPRPWPLLCRLLQEVVLGMCYLHSLNPPLLHRDLKPSNILLDPELHAKLADFGLSTFQGGSQSGSGSGSGSRDSGGTLAYLDPELLFDVNLKASKASDVYSFGILVWAVLAGREAELVDKTSLIRETVCDRQSRPPLTELPPGSPETPGLEKLKELMIHCWGSQSENRPSFQDCEPKTNEVYNLVKDKVDAAVSEVKHYLSQHRSSGRNLSAREPSQRGTEMDCPRETMVSKMLDRLHLEEPSGPVPGKCPERQAQDTSVGPATPARTSSDPVAGTPQIPHTLPFRGTTPGPVFTETPGPHPQRNQGDGRHGTPWYPWTPPNPMTGPPALVFNNCSEVQIGNYNSLVAPPRTTASSSAKYDQAQFGRGRGWQPFHK
